First the molecules themselves.
B1: RXRα, endogenous in mouse liver (protein, UniProt P28700 1-467)
chain: MDTKHFLPLDFSTQVNSSSLNSPTGRGSMAVPSLHPSLGPGIGSPLGSPGQLHSPISTLSSPINGMGPPFSVISSPMGPHSMSVPTTPTLGFGTGSPQLNSPMNPVSSTEDIKPPLGLNGVLKVPAHPSGNMASFTKHICAICGDRSSGKHYGVYSCEGCKGFFKRTVRKDLTYTCRDNKDCLIDKRQRNRCQYCRYQKCLAMGMKREAVQEERQRGKDRNENEVESTSSANEDMPVEKILEAELAVEPKTETYVEANMGLNPSSPNDPVTNICQAADKQLFTLVEWAKRIPHFSELPLDDQVILLRAGWNELLIASFSHRSIAVKDGILLATGLHVHRNSAHSAGVGAIFDRVLTELVSKMRDMQMDKTELGCLRAIVLFNPDSKGLSNPAEVEALREKVYASLEAYCKHKYPEQPGRFAKLLLRLPALRSIGLKCLEHLFFFKLIGDTPIDTFLMEMLEAPHQAT
B2: circadian nuclear receptor Rev-erbα, endogenous in mouse liver (protein, UniProt Q3UV55 1-615)
chain: MTTLDSNNNTGGVITYIGSSGSSPSRTSPESLYSDSSNGSFQSLTQGCPTYFPPSPTGSLTQDPARSFGSAPPSLSDDSSPSSASSSSSSSSSSFYNGSPPGSLQVAMEDSSRVSPSKGTSNITKLNGMVLLCKVCGDVASGFHYGVHACEGCKGFFRRSIQQNIQYKRCLKNENCSIVRINRNRCQQCRFKKCLSVGMSRDAVRFGRIPKREKQRMLAEMQSAMNLANNQLSSLCPLETSPTPHPTSGSMGPSPPPAPAPTPLVGFSQFPQQLTPPRSPSPEPTMEDVISQVARAHREIFTYAHDKLGTSPGNFNANHASGSPSATTPHRWESQGCPSAPNDNNLLAAQRHNEALNGLRQGPSSYPPTWPSGPTHHSCHQPNSNGHRLCPTHVYSAPEGEAPANSLRQGNTKNVLLACPMNMYPHGRSGRTVQEIWEDFSMSFTPAVREVVEFAKHIPGFRDLSQHDQVTLLKAGTFEVLMVRFASLFNVKDQTVMFLSRTTYSLQELGAMGMGDLLNAMFDFSEKLNSLALTEEELGLFTAVVLVSADRSGMENSASVEQLQETLLRALRALVLKNRPSETSRFTKLLLKLPDLRTLNNMHSEKLLSFRVDAQ
B3: ChREBP, endogenous in mouse liver (protein, UniProt Q99MZ3 1-864)
chain: MARALADLSVNLQVPRVVPSPDSDSDTDLEDPSPRRSAGGLHRSQVIHSGHFMVSSPHSDSLTRRRDQEGPVGLADFGPRSIDPTLTHLFECLSLAYSGKLVSPKWKNFKGLKLLCRDKIRLNNAIWRAWYIQYVQRRKSPVCGFVTPLQGSEADEHRKPEAVILEGNYWKRRIEVVMREYHKWRIYYKKRLRKSSREGDFLAPKQVEGGWPPPERWCEQLFSSVVPVLLGGSEEEPGGRQLLDLDCFLSDISDTLFTMTQPSPSSLQLPPEDAYVGNADMIQPDLTPLQPSLDDFMEISDFFTNYRPPQTPTSSNYIESPSFGPMADSLFSSGILAPEMPSPASSSSSSGMTPHSGNTRLQARNSCSGPLDPNPFLSSEFLLPEDPKTKIPPAPGPTPLLPFPTPVKVHGLEPCTPSPFPTMAPPPSLLPEESLLSARFPFTSAPPAPGVSTLPAPTTFVPTPQPGPGPVPFSVDHLPHGYLEPVFGPHFTVPQGMQPRCKPSSPSPGGQKASPPTLASATASPTATATARDNNPCLTQLLRAAKPEQALEPPTMPGTLLRPPESPQDTVSEIPRARAFFPPIPAPTPPRPPPGPATLAPPRSLVVPKAERLSPPASSGSERRLSGDLNSIQPSGALSVHLSPPQTVLSRGRVDNNKMENRRITHISAEQKRRFNIKLGFDTLHGLVSTLSAQPSLKVSKATTLQKTAEYILMLQQERAAMQEEAQQLRDEIEELNAAINLCQQQLPATGVPITHQRFDQMRDMFDDYVRTRTLHNWKFWVFSILIRPLFESFNGMVSTASLHSLRQTSLAWLEQYCSLPALRPTVLNSLRQLSTSTSILTDPSLVPEQATRAVTEGTLGRPL
B4: hepatocyte nuclear factor 4α (HNF4α), endogenous in mouse liver (protein, UniProt P49698 1-474)
chain: MRLSKTLAGMDMADYSAALDPAYTTLEFENVQVLTMGNDTSPSEGANLNSSNSLGVSALCAICGDRATGKHYGASSCDGCKGFFRRSVRKNHMYSCRFSRQCVVDKDKRNQCRYCRLKKCFRAGMKKEAVQNERDRISTRRSSYEDSSLPSINALLQAEVLSQQITSPISGINGDIRAKKIANITDVCESMKEQLLVLVEWAKYIPAFCELLLDDQVALLRAHAGEHLLLGATKRSMVFKDVLLLGNDYIVPRHCPELAEMSRVSIRILDELVLPFQELQIDDNEYACLKAIIFFDPDAKGLSDPGKIKRLRSQVQVSLEDYINDRQYDSRGRFGELLLLLPTLQSITWQMIEQIQFIKLFGMAKIDNLLQEMLLGGSASDAPHTHHPLHPHLMQEHMGTNVIVANTMPSHLSNGQMCEWPRPRGQAATPETPQPSPPSGSGSESYKLLPGAITTIVKPPSAIPQPTITKQEAI
B5: FXR, endogenous in mouse liver (protein, UniProt Q60641 1-488)
chain: MVMQFQGLENPIQISLHHSHRLSGFVPEGMSVKPAKGMLTEHAAGPLGQNLDLESYSPYNNVPFPQVQPQISSSSYYSNLGFYPQQPEDWYSPGIYELRRMPAETGYQGETEVSEMPVTKKPRMAAASAGRIKGDELCVVCGDRASGYHYNALTCEGCKGFFRRSITKNAVYKCKNGGNCVMDMYMRRKCQECRLRKCKEMGMLAECMYTGLLTEIQCKSKRLRKNVKQHADQTANEDDSEGRDLRQVTSTTKFCREKTELTADQQTLLDYIMDSYNKQRMPQEITNKILKEEFSAEENFLILTEMATSHVQILVEFTKKLPGFQTLDHEDQIALLKGSAVEAMFLRSAEIFNKKLPAGHADLLEERIRKSGISDEYITPMFSFYKSVGELKMTQEEYALLTAIVILSPDRQYIKDREAVEKLQEPLLDVLQKLCKMYQPENPQHFACLLGRLTELRTFNHHHAEMLMSWRVNDHKFTPLLCEIWDVQ

The chains behind the UniProt entries cited, without tags or fusion partners.
UniProt O88895: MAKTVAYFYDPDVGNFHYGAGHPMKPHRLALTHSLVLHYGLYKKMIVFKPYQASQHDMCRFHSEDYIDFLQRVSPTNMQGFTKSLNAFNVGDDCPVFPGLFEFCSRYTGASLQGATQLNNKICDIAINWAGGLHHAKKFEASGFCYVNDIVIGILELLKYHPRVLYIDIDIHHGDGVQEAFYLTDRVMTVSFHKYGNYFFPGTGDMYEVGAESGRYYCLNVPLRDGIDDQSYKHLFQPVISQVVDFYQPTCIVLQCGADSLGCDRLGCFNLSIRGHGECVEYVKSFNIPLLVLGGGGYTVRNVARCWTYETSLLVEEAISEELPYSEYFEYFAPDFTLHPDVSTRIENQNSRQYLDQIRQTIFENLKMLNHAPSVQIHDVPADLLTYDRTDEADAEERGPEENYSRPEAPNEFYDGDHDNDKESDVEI
UniProt Q60974: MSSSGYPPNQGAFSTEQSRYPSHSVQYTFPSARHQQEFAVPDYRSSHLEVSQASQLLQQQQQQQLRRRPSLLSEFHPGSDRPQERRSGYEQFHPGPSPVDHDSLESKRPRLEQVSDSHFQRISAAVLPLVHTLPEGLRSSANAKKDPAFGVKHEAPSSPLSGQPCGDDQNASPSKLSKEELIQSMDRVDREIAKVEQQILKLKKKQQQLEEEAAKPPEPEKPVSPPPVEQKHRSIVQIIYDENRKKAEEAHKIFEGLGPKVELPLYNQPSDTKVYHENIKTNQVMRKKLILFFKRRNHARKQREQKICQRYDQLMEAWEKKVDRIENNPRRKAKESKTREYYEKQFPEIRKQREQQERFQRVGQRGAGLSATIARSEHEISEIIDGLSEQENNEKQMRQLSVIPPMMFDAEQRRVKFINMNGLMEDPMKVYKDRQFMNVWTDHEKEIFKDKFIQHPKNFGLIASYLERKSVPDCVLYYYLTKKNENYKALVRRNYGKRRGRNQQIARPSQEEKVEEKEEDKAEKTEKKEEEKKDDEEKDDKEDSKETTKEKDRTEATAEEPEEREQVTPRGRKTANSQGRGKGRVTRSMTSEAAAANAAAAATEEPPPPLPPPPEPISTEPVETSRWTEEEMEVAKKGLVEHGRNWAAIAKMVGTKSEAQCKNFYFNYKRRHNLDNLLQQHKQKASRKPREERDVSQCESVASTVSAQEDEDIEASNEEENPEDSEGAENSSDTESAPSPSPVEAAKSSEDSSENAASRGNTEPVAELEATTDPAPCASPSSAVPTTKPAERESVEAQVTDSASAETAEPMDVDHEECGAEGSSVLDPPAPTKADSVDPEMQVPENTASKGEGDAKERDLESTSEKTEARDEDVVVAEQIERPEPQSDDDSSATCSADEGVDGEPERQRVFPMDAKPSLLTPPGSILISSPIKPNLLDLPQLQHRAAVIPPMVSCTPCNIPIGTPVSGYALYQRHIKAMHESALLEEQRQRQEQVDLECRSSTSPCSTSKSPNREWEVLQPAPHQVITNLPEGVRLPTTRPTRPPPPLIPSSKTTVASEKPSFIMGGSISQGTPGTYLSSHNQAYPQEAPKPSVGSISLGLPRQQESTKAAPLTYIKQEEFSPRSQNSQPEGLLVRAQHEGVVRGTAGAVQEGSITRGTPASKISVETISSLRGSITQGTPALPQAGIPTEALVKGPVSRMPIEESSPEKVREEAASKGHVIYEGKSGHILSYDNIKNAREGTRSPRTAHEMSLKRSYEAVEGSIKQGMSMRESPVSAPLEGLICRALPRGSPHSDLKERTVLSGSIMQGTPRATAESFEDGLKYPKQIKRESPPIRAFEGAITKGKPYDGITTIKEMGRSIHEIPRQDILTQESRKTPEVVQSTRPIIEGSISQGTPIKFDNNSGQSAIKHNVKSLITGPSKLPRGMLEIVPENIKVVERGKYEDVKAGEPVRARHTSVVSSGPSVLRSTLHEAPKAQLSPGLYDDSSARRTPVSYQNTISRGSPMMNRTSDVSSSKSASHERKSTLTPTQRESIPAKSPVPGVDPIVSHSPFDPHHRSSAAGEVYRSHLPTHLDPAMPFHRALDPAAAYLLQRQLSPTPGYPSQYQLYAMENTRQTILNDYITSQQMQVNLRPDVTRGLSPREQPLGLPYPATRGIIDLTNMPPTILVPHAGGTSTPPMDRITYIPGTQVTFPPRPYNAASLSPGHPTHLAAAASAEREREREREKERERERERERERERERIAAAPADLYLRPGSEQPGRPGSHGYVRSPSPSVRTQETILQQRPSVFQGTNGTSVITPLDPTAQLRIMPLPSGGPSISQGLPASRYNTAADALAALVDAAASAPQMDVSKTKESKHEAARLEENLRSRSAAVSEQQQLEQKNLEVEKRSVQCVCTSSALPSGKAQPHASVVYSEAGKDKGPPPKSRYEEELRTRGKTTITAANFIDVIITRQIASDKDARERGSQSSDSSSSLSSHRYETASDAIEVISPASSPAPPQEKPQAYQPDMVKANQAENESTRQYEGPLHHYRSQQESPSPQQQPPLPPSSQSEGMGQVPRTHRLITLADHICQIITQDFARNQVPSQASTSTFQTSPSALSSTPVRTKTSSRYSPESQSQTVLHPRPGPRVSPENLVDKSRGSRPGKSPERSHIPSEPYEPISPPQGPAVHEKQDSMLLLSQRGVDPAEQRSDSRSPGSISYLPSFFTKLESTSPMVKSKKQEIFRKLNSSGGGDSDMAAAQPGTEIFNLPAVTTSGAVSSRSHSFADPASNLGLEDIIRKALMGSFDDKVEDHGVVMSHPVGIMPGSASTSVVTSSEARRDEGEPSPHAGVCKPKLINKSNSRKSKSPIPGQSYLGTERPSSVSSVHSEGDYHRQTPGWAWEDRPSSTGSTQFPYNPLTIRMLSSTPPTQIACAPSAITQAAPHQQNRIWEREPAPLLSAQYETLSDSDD
UniProt P53566: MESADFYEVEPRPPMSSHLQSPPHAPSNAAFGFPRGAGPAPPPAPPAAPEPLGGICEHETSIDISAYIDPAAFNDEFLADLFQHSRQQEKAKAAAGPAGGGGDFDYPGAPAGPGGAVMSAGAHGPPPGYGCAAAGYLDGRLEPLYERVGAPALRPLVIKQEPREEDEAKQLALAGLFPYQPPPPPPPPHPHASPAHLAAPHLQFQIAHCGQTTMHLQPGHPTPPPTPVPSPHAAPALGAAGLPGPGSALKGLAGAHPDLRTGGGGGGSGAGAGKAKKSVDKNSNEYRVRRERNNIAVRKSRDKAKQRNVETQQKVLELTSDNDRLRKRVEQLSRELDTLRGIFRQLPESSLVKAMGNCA
UniProt Q01147: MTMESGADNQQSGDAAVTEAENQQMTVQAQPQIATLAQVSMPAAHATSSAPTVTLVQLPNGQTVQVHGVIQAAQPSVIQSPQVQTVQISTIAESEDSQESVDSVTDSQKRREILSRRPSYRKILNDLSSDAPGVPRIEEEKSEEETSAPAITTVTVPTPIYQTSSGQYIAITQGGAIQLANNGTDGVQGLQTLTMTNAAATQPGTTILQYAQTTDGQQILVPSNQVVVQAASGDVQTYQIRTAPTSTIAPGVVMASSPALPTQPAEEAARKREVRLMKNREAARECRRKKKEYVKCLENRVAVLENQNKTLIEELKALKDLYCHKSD

No constants are given. Whether binding was seen depends on the method and setting. Binding seen in cells or lysates may run through a third protein. Here binding means that the protein was enriched with, or labelled near, the bait; the list need not be complete.

The first assay has as its target HA-tagged HDAC3 (AAV8 TBG HDAC3-HA), expressed in hepatocytes of Hdac3 fl/fl mice (UniProt O88895). Nature of the assay: affinity purification with mass spectrometry; NEAT ChIP-MS: nuclei isolated from livers expressing HDAC3-HA (endogenous HDAC3 deleted by Cre), cross-linked with 1% formaldehyde, sonicated, anti-HA agarose overnight, nLC-MS/MS; compared with HA-EGFP control (10-fold, P < 0.01).
“nuclear receptor corepressor (NCOR1), endogenous in mouse liver (from UniProt Q60974 1-2453)”: the binding result was “binds”. “C/EBPα, endogenous in mouse liver (from UniProt P53566 1-359)”: the binding result is “binds”. For the molecule “CREB1, endogenous in mouse liver (from UniProt Q01147 1-327)”, the binding result is given as “binds”.

Another assay has the same target. The description is as above. The source holds these as a separate data set.
Turning to B1, the binding entry is listed as “binds”. For the molecule B2, the binding entry is “binds”. The same measure, in the same setting: under B3 stands “binds”; under B4, “binds”. For B5, the binding entry was “binds”.

For the origin of these results see publication PMC5601916.
